In publication PMC6949151:
Results are given in words; binding and its absence hold for the method and conditions named. In cells and extracts the contact can be indirect. Here binding means that the protein was enriched with, or labelled near, the bait; the list need not be complete.

The chains behind the UniProt entries cited, without tags or fusion partners.
UniProt P01100: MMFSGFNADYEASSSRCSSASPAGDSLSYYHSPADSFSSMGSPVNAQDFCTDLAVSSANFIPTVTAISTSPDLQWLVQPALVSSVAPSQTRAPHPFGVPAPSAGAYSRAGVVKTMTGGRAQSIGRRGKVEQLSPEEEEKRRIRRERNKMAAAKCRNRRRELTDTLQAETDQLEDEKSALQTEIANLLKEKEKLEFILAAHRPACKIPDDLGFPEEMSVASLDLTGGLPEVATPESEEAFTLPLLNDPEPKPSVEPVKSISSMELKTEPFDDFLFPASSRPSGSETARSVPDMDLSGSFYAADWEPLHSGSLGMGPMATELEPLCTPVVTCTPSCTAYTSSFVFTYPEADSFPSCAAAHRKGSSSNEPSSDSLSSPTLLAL
UniProt P05412: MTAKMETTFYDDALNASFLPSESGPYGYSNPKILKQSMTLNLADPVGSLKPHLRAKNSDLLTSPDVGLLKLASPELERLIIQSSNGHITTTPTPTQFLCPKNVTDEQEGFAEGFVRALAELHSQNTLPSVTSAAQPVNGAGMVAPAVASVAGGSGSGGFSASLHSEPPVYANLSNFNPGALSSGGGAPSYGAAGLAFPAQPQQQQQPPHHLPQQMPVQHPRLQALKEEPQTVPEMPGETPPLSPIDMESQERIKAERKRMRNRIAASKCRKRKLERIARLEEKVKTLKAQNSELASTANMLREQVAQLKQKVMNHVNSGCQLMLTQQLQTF
UniProt Q09472: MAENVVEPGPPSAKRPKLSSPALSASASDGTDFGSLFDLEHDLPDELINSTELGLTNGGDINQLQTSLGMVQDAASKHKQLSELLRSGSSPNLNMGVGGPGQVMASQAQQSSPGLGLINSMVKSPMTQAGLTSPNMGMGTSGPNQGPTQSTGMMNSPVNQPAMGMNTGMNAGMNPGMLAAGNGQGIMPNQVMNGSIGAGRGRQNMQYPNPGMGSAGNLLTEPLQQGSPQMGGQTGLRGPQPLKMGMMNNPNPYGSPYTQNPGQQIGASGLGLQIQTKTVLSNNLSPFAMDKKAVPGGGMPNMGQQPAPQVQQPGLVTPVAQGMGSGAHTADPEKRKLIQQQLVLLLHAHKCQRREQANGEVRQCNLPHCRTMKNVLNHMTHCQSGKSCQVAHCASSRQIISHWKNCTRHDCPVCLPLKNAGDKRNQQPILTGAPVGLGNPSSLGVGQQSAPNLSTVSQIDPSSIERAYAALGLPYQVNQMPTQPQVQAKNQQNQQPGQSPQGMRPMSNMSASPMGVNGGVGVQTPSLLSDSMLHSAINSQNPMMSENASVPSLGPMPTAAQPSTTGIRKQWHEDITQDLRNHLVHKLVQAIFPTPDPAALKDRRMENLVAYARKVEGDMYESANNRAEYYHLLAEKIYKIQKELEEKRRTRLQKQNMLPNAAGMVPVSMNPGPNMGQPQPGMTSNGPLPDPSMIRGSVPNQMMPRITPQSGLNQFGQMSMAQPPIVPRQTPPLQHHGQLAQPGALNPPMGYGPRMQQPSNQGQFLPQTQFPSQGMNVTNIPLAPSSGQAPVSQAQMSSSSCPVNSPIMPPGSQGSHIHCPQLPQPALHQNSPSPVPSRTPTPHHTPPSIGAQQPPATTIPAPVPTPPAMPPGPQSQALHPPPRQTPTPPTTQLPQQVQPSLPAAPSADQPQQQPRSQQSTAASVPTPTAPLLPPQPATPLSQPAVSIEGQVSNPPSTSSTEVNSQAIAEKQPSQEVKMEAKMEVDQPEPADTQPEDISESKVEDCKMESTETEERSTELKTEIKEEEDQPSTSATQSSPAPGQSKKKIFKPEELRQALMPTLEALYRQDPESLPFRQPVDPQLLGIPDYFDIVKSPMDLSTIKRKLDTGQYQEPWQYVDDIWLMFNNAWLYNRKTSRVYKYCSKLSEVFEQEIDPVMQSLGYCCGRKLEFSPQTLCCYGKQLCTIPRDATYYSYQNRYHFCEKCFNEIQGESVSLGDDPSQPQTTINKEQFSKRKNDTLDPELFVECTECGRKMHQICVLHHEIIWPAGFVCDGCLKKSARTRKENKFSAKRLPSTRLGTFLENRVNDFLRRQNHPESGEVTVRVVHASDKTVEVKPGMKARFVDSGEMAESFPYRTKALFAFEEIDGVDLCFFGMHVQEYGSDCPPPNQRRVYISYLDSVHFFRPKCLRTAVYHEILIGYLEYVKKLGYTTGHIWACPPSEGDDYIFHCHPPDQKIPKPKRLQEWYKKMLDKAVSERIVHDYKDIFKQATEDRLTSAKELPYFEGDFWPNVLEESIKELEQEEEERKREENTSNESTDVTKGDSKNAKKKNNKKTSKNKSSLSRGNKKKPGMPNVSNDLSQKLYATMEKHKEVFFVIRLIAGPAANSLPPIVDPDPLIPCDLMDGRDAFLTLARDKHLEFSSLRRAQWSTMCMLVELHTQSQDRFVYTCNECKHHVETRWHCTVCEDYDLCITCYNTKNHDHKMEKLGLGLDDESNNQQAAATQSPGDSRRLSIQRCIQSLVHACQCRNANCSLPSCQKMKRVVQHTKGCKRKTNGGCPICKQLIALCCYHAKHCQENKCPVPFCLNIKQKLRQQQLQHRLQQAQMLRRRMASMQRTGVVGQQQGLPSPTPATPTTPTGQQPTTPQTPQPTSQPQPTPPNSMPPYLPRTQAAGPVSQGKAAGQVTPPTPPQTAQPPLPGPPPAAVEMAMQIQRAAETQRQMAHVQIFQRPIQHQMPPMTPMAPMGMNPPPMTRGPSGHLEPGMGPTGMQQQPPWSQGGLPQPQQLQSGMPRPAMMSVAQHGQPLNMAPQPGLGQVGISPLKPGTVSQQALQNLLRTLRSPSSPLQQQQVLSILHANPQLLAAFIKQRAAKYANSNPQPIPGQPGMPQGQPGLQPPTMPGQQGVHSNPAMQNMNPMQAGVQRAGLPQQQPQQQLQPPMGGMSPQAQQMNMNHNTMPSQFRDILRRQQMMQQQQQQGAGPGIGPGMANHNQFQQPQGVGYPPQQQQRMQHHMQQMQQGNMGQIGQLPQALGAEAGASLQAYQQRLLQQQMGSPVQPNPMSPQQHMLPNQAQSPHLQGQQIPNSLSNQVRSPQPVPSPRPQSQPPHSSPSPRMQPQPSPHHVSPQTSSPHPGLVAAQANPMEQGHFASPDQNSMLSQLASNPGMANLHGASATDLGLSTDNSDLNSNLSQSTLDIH

How the values were obtained:
Flag-c-FOS = Flag-c-FOS (UniProt P01100); assay: affinity purification with mass spectrometry; lysate (1× RIPA buffer with protease inhibitor) of RPTEC/TERT1 OAT3 cells expressing 2×Flag-c-FOS or 2×Flag-c-Jun, immunoprecipitated with anti-Flag agarose; SDS gel, silver stain, bands excised, Q Exactive HF-X, MASCOT search
Flag-c-Jun = Flag-c-Jun (UniProt P05412); assay: as above

## histone acetyltransferase p300 (from UniProt Q09472 1-2414)
Flag-c-FOS
  binding: binds
Flag-c-Jun
  binding: binds
